From patent US7196080B2, “Phenylpyridinecarbonylpiperazinederivative” (Astellas Pharma Inc., priority 2001, dated 2007)
Some results were stated once for a whole list of compounds, not compound by compound.

System: PDE4
Assay: PDE4 inhibitory activity (Test Example 1)
Type: biochemical
Details: PDE4 purified from rat ventricle muscle; 1 μM cAMP, [3H]cAMP SPA

## 4-{2-[(6-{4-]6-(3,4-dimethoxyphenyl)pyridine-2-carbonyl)piperazin-1-yl}-3-pyridyl}oxylethyl)morpholine [Example 99]
  IC50: ≤ 12 nM
